Paper PMC4627348
No constants are given. Whether binding was seen depends on the method and setting. Binding seen in cells or lysates may run through a third protein. Some results given as binding are weak or reduced against the parent protein; the word gives no strength.

Amino acid sequences for entries named in this document (tags omitted).
UniProt O96017: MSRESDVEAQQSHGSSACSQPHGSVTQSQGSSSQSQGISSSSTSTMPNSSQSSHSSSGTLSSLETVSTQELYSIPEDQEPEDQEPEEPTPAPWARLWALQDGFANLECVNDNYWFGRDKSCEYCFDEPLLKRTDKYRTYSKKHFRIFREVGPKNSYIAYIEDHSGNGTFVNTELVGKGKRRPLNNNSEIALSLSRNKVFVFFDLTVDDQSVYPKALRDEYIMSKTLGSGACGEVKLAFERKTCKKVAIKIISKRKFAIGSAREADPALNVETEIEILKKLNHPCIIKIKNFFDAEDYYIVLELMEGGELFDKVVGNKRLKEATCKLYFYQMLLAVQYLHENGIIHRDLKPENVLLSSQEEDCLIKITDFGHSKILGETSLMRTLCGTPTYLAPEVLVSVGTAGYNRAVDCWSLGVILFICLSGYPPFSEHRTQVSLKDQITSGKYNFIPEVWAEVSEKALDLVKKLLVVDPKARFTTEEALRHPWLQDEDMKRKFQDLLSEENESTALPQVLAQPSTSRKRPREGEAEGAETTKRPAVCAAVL
UniProt Q13263: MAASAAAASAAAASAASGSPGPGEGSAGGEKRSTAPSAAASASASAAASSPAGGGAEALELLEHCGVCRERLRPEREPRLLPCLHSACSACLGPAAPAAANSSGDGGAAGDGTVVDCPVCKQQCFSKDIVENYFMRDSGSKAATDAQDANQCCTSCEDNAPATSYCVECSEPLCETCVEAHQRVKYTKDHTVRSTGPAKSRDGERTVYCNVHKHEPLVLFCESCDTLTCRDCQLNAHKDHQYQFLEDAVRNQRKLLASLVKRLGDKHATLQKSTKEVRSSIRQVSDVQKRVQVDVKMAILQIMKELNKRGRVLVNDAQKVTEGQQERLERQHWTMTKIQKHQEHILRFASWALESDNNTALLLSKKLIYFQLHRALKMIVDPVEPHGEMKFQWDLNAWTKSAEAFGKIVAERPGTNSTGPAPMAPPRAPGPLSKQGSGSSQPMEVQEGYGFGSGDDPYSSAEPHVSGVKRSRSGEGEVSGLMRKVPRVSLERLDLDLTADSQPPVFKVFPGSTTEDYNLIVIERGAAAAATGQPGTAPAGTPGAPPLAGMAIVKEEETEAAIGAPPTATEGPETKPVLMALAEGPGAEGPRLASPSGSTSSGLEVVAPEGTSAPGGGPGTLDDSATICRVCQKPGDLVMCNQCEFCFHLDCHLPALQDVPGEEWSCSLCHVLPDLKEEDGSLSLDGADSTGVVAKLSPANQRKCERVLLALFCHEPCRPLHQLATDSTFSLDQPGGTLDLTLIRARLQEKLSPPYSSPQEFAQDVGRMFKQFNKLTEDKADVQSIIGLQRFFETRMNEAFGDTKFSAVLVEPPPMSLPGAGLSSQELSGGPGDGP

Experiments:
[1] = molecular target: Chk2 (human (endogenous in U2OS)) (UniProt O96017); experiment: co-IP; endogenous Chk2 and KAP1 in CCAR2+/+ and CCAR2-/- cells before and after DNA damage; Chk2 antibody clone 44D4/21 used for IP
HA-Chk2 and FLAG-Chk2 = HA-Chk2 and FLAG-Chk2 (UniProt O96017); experiment: co-IP; HA-Chk2 and FLAG-Chk2 co-transfected in CCAR2+/+ and CCAR2-/- cells; immunoprecipitated with anti-HA, immunoblotted with anti-FLAG; before and after DNA damage

Row | Substance | binding [1] | binding (HA-Chk2 and FLAG-Chk2)
1 | KAP1 (KRAB domain-associated protein 1) (from UniProt Q13263 1-835) | binds | 
2 | HA-Chk2 and FLAG-Chk2 (from UniProt O96017 1-543) (enzyme) |  | binds
